Test results published in PMC9223267, “Serine hydroxymethyltransferase as a potential target of antibacterial agents acting synergistically with one-carbon metabolism-related inhibitors” (Communications Biology, 2022).
Entries after “also recorded” stand apart in the source; their conditions may differ.

Chains of the proteins cited; added tags and fusions are not shown.
UniProt I3U4H4, whole entry M1V: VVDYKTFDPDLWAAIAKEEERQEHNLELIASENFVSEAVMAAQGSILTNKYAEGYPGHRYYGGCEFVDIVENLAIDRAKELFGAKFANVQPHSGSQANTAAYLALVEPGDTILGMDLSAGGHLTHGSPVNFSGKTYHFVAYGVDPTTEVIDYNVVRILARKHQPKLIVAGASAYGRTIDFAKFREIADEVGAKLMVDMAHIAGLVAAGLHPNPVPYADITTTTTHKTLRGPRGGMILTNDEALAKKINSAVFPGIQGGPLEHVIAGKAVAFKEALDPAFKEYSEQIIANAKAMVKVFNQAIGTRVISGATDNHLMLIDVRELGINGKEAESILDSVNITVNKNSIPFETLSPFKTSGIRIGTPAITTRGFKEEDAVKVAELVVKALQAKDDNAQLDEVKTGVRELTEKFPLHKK

Columns and labels:
efmSHMT = efmSHMT (Enterococcus faecium, UniProt I3U4H4, M1V); type: binding; conditions: 5 μM efmSHMT; 10 mM Gly and 100 μM Ser; Cheng-Prusoff
Description: After adding Me-THF, the efmSHMT solution was incubated for 30 min at room temperature. The optical density at 500 and 600 nm (OD500 and OD600) were then measured using a nanodrop spectrophotometer[24],[25]. OD600 was used as the background. After detection, each concentration of inhibitor was added to the efmSHMT solution and incubated for 30 min at room temperature. OD500 and OD600 were measured. The relative OD500 intensity was calculated as relative OD500 = (OD500 – OD600)/(MAXOD500 – OD600), where MAXOD500 is the average OD500 value in the presence of 1000, 2000 and 4000 μM Me-THF without inhibitors. […] Here, IC50 is the concentration of inhibitor added to the efmSHMT solution and [Me-THF] is the EC50 in the presence of the inhibitor concentration. [EC50 without inhibitor] is the EC50 of Me-THF in the absence of the inhibitor.

E. faecium = assay: Bacterial viability assay (Microbial Viability Assay Kit-WST, OD450); type: cell-based; conditions: Enterococcus faecium, relative bacterial viability after 14 h incubation
Description: Living E. faecium were determined using the Microbial Viability Assay Kit-WST (DOJINDO, Tokyo, Japan). Briefly, E. faecium were grown overnight at 37 °C on Nissui Plate Sheep Blood Agar. […] Positive control wells included bacteria seeded into MH broth without compounds, and the negative control wells contained MH broth only. […] Five microlitres of the colouring reagent were added to each well of the 96-well plate every 2 h after starting incubation with each compound. The absorbance at 450 nm (OD450) was measured 1 h after adding the colouring reagent using the GloMax microtiter plate reader (Promega, Tokyo, Japan).

## CN[C@H]1CC[C@@H](c2ccc(Cl)c(Cl)c2)c2ccccc21 [SER, sertraline]
efmSHMT
  Ki: did not change the OD500; also recorded: did not bind
E. faecium
  EC50: 13 µM
